log2 fold change data for 39 targets are collected here from the supplement of paper PMC12819154, “High-throughput peptide-centric local stability assay extends protein–ligand identification to membrane proteins, tissues and bacteria” (Nature Structural & Molecular Biology, 2025).

By UniProt entry, the sequences of proteins in these tests, tags left out. Where a name states a change or a piece, a line headed by the entry shows the natural chain unless it says otherwise.
UniProt Q61584: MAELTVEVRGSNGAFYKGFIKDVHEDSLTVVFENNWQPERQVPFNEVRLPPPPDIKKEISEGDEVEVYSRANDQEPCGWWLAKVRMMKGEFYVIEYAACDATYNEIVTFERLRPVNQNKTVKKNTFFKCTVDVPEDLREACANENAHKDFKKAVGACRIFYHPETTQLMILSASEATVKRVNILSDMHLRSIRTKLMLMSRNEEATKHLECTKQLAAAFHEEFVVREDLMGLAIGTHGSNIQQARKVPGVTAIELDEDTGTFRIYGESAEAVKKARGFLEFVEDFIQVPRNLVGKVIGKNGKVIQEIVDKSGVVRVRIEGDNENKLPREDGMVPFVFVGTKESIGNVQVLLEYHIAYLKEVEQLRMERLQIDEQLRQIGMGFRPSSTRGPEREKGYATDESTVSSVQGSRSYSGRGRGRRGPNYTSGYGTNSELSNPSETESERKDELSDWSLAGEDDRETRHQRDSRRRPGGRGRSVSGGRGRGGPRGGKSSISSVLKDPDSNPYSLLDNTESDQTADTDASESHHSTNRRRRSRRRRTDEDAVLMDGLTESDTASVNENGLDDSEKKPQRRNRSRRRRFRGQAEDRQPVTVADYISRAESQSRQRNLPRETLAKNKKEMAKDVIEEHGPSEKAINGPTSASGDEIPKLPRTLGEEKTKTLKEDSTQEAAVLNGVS
UniProt Q62422: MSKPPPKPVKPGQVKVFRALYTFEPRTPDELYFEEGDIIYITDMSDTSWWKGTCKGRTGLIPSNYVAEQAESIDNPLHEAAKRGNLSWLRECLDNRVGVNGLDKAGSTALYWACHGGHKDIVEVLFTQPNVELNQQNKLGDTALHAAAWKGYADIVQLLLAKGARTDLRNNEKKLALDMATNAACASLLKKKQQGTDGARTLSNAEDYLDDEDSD
UniProt Q61598: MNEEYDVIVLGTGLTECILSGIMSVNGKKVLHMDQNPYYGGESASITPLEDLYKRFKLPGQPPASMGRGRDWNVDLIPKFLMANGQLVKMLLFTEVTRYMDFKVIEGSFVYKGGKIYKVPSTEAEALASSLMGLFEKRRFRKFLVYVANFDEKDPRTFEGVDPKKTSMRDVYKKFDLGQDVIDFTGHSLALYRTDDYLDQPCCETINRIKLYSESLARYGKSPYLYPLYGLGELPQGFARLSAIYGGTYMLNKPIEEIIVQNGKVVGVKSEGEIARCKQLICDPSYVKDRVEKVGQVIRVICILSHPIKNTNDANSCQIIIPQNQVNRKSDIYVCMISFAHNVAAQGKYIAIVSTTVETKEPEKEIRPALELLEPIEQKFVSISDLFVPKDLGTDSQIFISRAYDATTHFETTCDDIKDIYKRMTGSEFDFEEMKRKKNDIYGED
UniProt Q61817: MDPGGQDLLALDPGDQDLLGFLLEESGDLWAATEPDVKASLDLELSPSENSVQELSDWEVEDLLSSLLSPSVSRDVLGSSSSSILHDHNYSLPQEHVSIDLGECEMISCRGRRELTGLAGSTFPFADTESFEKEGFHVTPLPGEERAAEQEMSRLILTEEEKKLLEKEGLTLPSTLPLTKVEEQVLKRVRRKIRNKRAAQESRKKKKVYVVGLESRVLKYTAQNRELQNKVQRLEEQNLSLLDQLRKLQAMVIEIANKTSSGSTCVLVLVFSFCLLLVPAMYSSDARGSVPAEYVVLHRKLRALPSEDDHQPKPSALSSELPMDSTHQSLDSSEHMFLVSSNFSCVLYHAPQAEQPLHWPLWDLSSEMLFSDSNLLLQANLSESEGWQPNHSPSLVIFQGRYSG
UniProt Q62426: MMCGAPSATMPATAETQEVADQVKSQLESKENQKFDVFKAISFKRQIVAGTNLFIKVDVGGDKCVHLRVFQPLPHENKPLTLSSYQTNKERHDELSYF
UniProt Q63943: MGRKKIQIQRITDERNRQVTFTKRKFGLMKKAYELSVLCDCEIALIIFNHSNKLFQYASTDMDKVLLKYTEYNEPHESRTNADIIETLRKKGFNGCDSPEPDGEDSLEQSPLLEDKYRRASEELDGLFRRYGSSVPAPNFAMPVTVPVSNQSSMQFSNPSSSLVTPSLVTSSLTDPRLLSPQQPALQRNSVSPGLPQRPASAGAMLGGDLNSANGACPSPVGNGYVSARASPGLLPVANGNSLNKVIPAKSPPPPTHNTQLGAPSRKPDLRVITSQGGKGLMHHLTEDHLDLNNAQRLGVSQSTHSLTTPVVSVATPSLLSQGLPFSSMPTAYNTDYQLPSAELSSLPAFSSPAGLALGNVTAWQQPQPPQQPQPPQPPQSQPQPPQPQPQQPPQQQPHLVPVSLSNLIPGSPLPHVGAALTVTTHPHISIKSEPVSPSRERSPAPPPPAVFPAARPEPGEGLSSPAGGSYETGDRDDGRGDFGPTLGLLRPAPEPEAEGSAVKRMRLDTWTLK
UniProt Q61458: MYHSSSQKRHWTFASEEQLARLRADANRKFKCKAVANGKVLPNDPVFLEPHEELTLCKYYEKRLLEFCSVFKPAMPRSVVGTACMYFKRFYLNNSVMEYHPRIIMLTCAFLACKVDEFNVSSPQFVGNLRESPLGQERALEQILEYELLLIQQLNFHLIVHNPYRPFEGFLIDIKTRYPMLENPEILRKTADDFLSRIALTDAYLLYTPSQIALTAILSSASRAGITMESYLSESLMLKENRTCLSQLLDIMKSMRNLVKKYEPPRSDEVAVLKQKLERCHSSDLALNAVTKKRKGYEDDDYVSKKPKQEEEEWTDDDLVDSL
UniProt Q62415: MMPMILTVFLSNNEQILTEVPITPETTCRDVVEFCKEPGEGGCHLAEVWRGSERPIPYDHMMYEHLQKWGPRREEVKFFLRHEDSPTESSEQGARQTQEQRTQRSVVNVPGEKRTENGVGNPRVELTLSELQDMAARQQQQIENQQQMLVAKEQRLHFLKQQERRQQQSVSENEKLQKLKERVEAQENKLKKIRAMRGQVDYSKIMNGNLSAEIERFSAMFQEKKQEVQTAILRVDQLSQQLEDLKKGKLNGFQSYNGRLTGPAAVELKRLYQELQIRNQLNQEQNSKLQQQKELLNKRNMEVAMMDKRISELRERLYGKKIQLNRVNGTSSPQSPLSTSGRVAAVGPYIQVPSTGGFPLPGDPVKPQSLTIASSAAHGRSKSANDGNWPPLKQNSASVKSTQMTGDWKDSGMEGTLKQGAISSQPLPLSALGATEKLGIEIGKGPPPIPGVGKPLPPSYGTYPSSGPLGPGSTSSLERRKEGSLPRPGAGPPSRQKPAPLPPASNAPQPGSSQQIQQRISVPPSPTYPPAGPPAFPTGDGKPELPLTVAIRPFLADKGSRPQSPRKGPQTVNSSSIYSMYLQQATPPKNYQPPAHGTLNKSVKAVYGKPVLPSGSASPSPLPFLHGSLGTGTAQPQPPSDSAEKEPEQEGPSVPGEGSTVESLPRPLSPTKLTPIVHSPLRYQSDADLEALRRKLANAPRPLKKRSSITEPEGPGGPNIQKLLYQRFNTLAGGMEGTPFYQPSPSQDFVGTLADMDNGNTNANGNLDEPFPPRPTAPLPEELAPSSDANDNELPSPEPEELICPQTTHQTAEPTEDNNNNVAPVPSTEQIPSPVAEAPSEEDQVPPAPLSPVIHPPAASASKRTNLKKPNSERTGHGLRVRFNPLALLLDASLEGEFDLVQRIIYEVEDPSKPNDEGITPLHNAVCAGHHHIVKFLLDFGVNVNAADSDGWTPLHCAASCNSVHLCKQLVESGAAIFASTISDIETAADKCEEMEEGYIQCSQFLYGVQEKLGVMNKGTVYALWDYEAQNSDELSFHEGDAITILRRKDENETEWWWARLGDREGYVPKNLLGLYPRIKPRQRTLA
UniProt Q61474, whole entry: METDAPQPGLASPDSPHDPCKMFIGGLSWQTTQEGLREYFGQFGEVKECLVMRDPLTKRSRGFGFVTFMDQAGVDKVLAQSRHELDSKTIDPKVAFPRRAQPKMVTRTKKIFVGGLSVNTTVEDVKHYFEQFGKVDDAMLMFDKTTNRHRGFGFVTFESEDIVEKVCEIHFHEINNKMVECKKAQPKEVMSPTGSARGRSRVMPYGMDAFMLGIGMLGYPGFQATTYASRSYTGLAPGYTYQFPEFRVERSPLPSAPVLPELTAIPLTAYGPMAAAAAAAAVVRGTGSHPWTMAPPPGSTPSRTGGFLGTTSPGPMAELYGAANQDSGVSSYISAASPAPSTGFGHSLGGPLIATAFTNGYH
UniProt Q68FL4, whole entry: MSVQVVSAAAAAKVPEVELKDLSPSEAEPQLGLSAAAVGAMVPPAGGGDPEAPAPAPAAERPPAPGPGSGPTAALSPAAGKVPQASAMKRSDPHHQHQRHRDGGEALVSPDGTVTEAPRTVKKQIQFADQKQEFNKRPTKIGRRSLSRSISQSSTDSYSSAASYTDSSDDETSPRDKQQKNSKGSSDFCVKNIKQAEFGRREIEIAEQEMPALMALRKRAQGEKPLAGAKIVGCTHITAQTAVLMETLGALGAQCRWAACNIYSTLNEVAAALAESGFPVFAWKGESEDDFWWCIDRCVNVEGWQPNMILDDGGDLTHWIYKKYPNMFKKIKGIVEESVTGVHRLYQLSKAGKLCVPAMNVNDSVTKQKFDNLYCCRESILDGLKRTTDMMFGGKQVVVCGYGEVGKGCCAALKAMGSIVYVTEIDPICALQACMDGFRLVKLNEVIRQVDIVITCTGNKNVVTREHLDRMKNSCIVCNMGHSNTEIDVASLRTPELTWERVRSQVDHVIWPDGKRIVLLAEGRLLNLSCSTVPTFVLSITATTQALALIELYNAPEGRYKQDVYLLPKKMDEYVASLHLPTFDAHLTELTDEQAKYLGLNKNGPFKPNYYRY
UniProt Q62513: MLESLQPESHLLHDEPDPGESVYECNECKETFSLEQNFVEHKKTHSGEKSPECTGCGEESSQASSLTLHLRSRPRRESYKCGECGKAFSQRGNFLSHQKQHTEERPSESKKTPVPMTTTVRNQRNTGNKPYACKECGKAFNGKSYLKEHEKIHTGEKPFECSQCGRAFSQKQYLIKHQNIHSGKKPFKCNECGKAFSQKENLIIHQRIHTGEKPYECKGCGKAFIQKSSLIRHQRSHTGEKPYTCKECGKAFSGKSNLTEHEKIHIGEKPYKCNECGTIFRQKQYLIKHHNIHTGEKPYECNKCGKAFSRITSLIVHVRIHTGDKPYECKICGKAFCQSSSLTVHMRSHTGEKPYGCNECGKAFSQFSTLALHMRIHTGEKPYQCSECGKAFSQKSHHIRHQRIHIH
UniProt Q62446: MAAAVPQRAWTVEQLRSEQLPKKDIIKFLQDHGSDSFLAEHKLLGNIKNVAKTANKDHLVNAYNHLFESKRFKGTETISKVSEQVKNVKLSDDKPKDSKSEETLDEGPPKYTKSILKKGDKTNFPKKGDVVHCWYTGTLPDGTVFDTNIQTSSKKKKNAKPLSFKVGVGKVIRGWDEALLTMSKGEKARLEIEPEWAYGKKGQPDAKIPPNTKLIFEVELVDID
UniProt Q62463, whole entry, looked up: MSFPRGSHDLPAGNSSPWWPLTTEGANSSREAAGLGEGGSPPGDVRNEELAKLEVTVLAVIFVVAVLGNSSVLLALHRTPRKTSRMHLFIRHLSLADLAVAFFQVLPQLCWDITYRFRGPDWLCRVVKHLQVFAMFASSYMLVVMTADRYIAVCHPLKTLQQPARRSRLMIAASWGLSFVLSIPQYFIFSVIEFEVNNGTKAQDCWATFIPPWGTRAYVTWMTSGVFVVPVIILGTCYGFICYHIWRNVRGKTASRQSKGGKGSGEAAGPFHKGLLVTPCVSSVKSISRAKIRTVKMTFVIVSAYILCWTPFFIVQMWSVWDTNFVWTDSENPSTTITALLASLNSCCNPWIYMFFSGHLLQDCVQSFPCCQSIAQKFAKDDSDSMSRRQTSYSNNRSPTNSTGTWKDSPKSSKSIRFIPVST
UniProt Q68FG3: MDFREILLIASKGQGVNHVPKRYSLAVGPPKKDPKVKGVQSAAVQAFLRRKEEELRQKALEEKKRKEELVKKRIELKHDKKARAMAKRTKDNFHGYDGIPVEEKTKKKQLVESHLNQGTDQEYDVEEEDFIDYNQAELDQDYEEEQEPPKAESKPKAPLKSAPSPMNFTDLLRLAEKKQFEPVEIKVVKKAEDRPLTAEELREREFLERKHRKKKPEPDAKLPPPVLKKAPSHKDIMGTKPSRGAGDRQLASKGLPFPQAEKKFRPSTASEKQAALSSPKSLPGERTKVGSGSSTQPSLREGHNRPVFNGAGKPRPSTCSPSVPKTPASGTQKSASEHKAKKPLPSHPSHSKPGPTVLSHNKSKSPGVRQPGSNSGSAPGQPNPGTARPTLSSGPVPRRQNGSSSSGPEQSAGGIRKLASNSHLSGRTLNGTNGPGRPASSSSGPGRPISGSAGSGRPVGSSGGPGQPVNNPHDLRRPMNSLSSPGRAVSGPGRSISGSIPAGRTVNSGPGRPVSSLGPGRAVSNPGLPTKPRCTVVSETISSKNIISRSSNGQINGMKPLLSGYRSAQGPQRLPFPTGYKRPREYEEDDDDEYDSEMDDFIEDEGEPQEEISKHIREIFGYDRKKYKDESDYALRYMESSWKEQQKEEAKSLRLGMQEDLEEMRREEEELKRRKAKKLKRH

Some of the results follow. Most values lie at the level of the controls, where differences are scatter.

Compound in the experiment: CN[C@@H]1C[C@H]2O[C@@](C)([C@@H]1OC)n1c3ccccc3c3c4c(c5c6ccccc6n2c5c31)C(=O)NC4 [staurosporine]
Briefly: log2 fold change of tryptic peptide abundance, ligand vs vehicle (limited proteolysis) (log2 ratio); higher = more trypsin-susceptible (destabilized). As to conditions: ligand concentration: 20 uM; sample: mouse liver crude lysate; replicate design: treated separately.
With “UniProt Q61584 (peptide sequence: LPPPPDIKK, peptide start residue: 49)”, the log2 fold change amounted to 0.22.

“UniProt Q62191 (peptide sequence: MEMDLTMQR, peptide start residue: 160)”: the log2 fold change worked out at 0.184.

Regarding “UniProt Q61599 (peptide sequence: ELQEMDKDDESLTKYK, peptide start residue: 33)”, the log2 fold change is -0.147.

On to “UniProt Q62417 (peptide sequence: RAGEQDPVPTPAELTSPGR, peptide start residue: 170)”, for which the log2 fold change was -0.22.

As to “UniProt Q63880 (peptide sequence: GRLQFWTETLPR, peptide start residue: 542)”, the log2 fold change was -0.193.

For the target “UniProt Q69ZI1 (peptide sequence: AQGSTVVNCGSK, peptide start residue: 99)”, the log2 fold change was 0.319.

For the target “UniProt Q68FD7 (peptide sequence: HHSEPLKEDR, peptide start residue: 779)”, the log2 fold change worked out at 0.538.

As for “UniProt Q61818 (peptide sequence: AESSPGLLR, peptide start residue: 1239)”, the log2 fold change was found to be 0.589.

As for “UniProt Q68FH0 (peptide sequence: SAVSPDLHITPIYEGR, peptide start residue: 402)”, the log2 fold change was -0.248.

“UniProt Q62422 (peptide sequence: ALYTFEPR, peptide start residue: 19)”: the log2 fold change was -0.0883.

As to “UniProt Q67FY2 (peptide sequence: VRAQNSSGMMGGPQK, peptide start residue: 817)”, the log2 fold change was -1.12.

As for “UniProt Q61598 (peptide sequence: DLGTDSQIFISR, peptide start residue: 391)”, the log2 fold change was -0.62.

Turning to “UniProt Q61817 (peptide sequence: AAEQEMSR, peptide start residue: 147)”, the log2 fold change is 0.534.

Regarding “UniProt Q61420 (peptide sequence: ASLSENVLGSPK, peptide start residue: 75)”, the log2 fold change is 0.314.

With “UniProt Q62351 (peptide sequence: LTTDFHNAEK, peptide start residue: 659)”, the log2 fold change is 0.439.

As to “UniProt Q62426 (peptide sequence: QIVAGTNLFIK, peptide start residue: 46)”, the log2 fold change is 0.0978.

“UniProt Q640M1 (peptide sequence: RSELNQAAEPLGNQETK, peptide start residue: 431)”: the log2 fold change was -0.509.

“UniProt Q63943 (peptide sequence: LLSPQQPALQR, peptide start residue: 178)”: the log2 fold change was 0.168.

Turning to “UniProt Q64345 (peptide sequence: SIEKEEVK, peptide start residue: 393)”, the log2 fold change is -0.275.

“UniProt Q61458 (peptide sequence: MYHSSSQK, peptide start residue: 1)”: the log2 fold change is -0.586.

For the target “UniProt Q62415 (peptide sequence: SVVNVPGEKR, peptide start residue: 105)”, the log2 fold change is -0.336.

Consider “UniProt Q69ZK6 (peptide sequence: SVVSQAVAQAK, peptide start residue: 1247)”, for which the log2 fold change is 0.566.

Regarding “UniProt Q64343 (peptide sequence: SIVCTIHQPSAK, peptide start residue: 268)”, the log2 fold change came to 0.506.

Take “UniProt Q61474 (peptide sequence: VCEIHFHEINNK, peptide start residue: 167)”: the log2 fold change was -0.133.

For “UniProt Q68FL4 (peptide sequence: ESILDGLK, peptide start residue: 295)”, the log2 fold change amounted to 0.686.

Turning to “UniProt Q61425 (peptide sequence: KTGEGFYK, peptide start residue: 305)”, the log2 fold change was found to be 0.137.

Regarding “UniProt Q63850 (peptide sequence: LAENIDAQLKR, peptide start residue: 440)”, the log2 fold change turned out to be 0.266.

As for “UniProt Q640N2 (peptide sequence: FQVTIFDLGGGKR, peptide start residue: 65)”, the log2 fold change was -0.347.

With “UniProt Q64505 (peptide sequence: AFIQNNLDSFK, peptide start residue: 200)”, the log2 fold change amounted to 0.348.

For “UniProt Q62000 (peptide sequence: DFADMPNLR, peptide start residue: 138)”, the log2 fold change is -0.297.

On to “UniProt Q62513 (peptide sequence: IHTGEKPYQCSECGK, peptide start residue: 376)”, for which the log2 fold change is 0.207.

With “UniProt Q62446 (peptide sequence: GWDEALLTMSK, peptide start residue: 174)”, the log2 fold change amounted to 0.173.

As for “UniProt Q64012 (peptide sequence: LEQIAEEQKANPDGKK, peptide start residue: 208)”, the log2 fold change turned out to be 0.788.

Consider “UniProt Q61884 (peptide sequence: LLKEESAK, peptide start residue: 169)”, for which the log2 fold change was 0.192.

As to “UniProt Q62018 (peptide sequence: LLKEQEEK, peptide start residue: 856)”, the log2 fold change is -0.293.

In the case of “UniProt Q62463 (peptide sequence: GSGEAAGPFHK, peptide start residue: 263)”, the log2 fold change was -0.162.

For the target “UniProt Q62261 (peptide sequence: LLEVLSGERLPKPTK, peptide start residue: 91)”, the log2 fold change was determined as 0.366.

For the target “UniProt Q62312 (peptide sequence: VREHPCVESMKDSVLR, peptide start residue: 478)”, the log2 fold change stood at 0.457.

Consider “UniProt Q68FG3 (peptide sequence: GLPFPQAEK, peptide start residue: 254)”, for which the log2 fold change is 0.177.
